Results deposited as PubChem BioAssay AID1259405 (NCATS, 2018)
In all, the deposit lists about 50,000 reagents; below is an unselected part. About 4,000 of all reagents (8%) were called active. 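Mouse siRNA library applied to hamster cells; one well for each siRNA.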 The numbers tell different reagents against one gene apart. Reagent sequences are not shown.

- Assay: 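Silenced genes that increase secreted GFP made by CHO cells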 (primary screen)
- Cell system: Chinese hamster CHO-K1 ovary cells with stable secreted eGFP expression
- Reagents: single siRNA against mouse genes, 0.8 pmol siRNA per well (2 µl of 400 nM stock)
- Timing: 3 days
- Detection: 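Percent of the per-plate non-targeting control median for intracellular GFP per well by laser scanning cytometry and for cell viability by ATP luminescence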
- Reading the numbers: GFP, % of control: higher = more GFP per well, higher productivity; viability (ATP), % of control: higher = more viable cells (more ATP)
- Rule for the call: 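a knock-down is called active if GFP reaches 120% or more of non-targeting control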

Gene,siRNA no.,"GFP, % of control","viability (ATP), % of control",outcome
"Bdh2 (3-hydroxybutyrate dehydrogenase, type 2)",1,142,55.2,active
"Bdh2 (3-hydroxybutyrate dehydrogenase, type 2)",2,78.1,71.5,inactive
"Bdh2 (3-hydroxybutyrate dehydrogenase, type 2)",3,47.9,68.6,inactive
"Pold1 (polymerase (DNA directed), delta 1, catalytic subunit)",1,47.1,78.2,inactive
"Pold1 (polymerase (DNA directed), delta 1, catalytic subunit)",2,42.5,55.8,inactive
"Pold1 (polymerase (DNA directed), delta 1, catalytic subunit)",3,92.7,79.6,inactive
Spns3,1,38.7,23.8,inactive
Spns3,2,58.7,69.7,inactive
Spns3,3,83.6,96.6,inactive
Spata21 (spermatogenesis associated 21),1,95.5,70.6,inactive
Spata21 (spermatogenesis associated 21),2,84.6,100,inactive
Spata21 (spermatogenesis associated 21),3,70.3,68.6,inactive
Or4d1 (olfactory receptor family 4 subfamily D member 1),1,46.9,36.7,inactive
Or4d1 (olfactory receptor family 4 subfamily D member 1),2,82.4,79.5,inactive
Or4d1 (olfactory receptor family 4 subfamily D member 1),3,81.9,98.3,inactive
Gtf3c1 (general transcription factor III C 1),1,87.7,80.6,inactive
Gtf3c1 (general transcription factor III C 1),2,89.7,89.5,inactive
Gtf3c1 (general transcription factor III C 1),3,90,64.9,inactive
Gm3696 (predicted gene 3696),1,84.1,109,inactive
Gm3696 (predicted gene 3696),2,49,72.1,inactive
Gm3696 (predicted gene 3696),3,116,91.6,inactive
Il23r (interleukin 23 receptor),1,71.7,84.6,inactive
Il23r (interleukin 23 receptor),2,74.7,65.2,inactive
Il23r (interleukin 23 receptor),3,78.4,62.2,inactive
Stpg1 (sperm tail PG rich repeat containing 1),1,78.7,68.1,inactive
Stpg1 (sperm tail PG rich repeat containing 1),2,77.8,46.9,inactive
Stpg1 (sperm tail PG rich repeat containing 1),3,51.3,58.7,inactive
Mad2l1bp (MAD2L1 binding protein),1,75.5,63.4,inactive
Mad2l1bp (MAD2L1 binding protein),2,83,79.6,inactive
Mad2l1bp (MAD2L1 binding protein),3,37,50.6,inactive
Pxn (paxillin),1,110,92,inactive
Pxn (paxillin),2,72.7,87.8,inactive
Pxn (paxillin),3,90.3,73.6,inactive
Sdc2 (syndecan 2),1,67.2,72.5,inactive
Sdc2 (syndecan 2),2,85,83.2,inactive
Sdc2 (syndecan 2),3,44.4,44.5,inactive
Nasp (nuclear autoantigenic sperm protein (histone-binding)),1,54.8,55.5,inactive
Nasp (nuclear autoantigenic sperm protein (histone-binding)),2,107,102,inactive
Nasp (nuclear autoantigenic sperm protein (histone-binding)),3,56.4,66.2,inactive
Rack1 (receptor for activated C kinase 1),1,54.5,66.7,inactive
Rack1 (receptor for activated C kinase 1),2,126,90.1,active
Rack1 (receptor for activated C kinase 1),3,76.6,69.2,inactive
Odf4 (outer dense fiber of sperm tails 4),1,68.3,66,inactive
Odf4 (outer dense fiber of sperm tails 4),2,159,52.5,active
Odf4 (outer dense fiber of sperm tails 4),3,68.3,80.4,inactive
Snn (stannin),1,93.3,90.2,inactive
Snn (stannin),2,96,65.6,inactive
Snn (stannin),3,44.5,60.9,inactive
Camk4 (calcium/calmodulin-dependent protein kinase IV),1,47.9,57.8,inactive
Dcaf15 (DDB1 and CUL4 associated factor 15),1,52.1,52.7,inactive
Dcaf15 (DDB1 and CUL4 associated factor 15),2,73.4,78.8,inactive
Dcaf15 (DDB1 and CUL4 associated factor 15),3,85.9,92.4,inactive
Btf3l4 (basic transcription factor 3-like 4),1,86,77.5,inactive
Btf3l4 (basic transcription factor 3-like 4),2,55.5,56.5,inactive
Btf3l4 (basic transcription factor 3-like 4),3,83.8,97.8,inactive
Med30 (mediator complex subunit 30),1,57.8,80.5,inactive
Med30 (mediator complex subunit 30),2,78.1,73.8,inactive
Med30 (mediator complex subunit 30),3,65.4,56.8,inactive
Kcnb1,1,71.7,71.1,inactive
Kcnb1,2,102,60.4,inactive
Kcnb1,3,52.3,43.4,inactive
"Mpl (Mpl proto-oncogene, thrombopoietin receptor)",1,91.8,94.7,inactive
"Mpl (Mpl proto-oncogene, thrombopoietin receptor)",2,60.8,63.8,inactive
"Mpl (Mpl proto-oncogene, thrombopoietin receptor)",3,69.2,75.2,inactive
Fus (fused in sarcoma),1,63.4,68.5,inactive
Fus (fused in sarcoma),2,62.7,57.3,inactive
Fus (fused in sarcoma),3,64.4,60,inactive
Nampt (nicotinamide phosphoribosyltransferase),1,84.9,153,inactive
Nampt (nicotinamide phosphoribosyltransferase),2,80.2,77.5,inactive
"Gtf2h1 (general transcription factor II H, polypeptide 1)",1,73.6,93,inactive
"Gtf2h1 (general transcription factor II H, polypeptide 1)",2,73.1,71.6,inactive
"Gtf2h1 (general transcription factor II H, polypeptide 1)",3,108,74.6,inactive
Map4k5 (mitogen-activated protein kinase kinase kinase kinase 5),1,56.3,80.8,inactive
Fhip1b (FHF complex subunit HOOK interacting protein 1B),1,62,78.2,inactive
Fhip1b (FHF complex subunit HOOK interacting protein 1B),2,52.3,75.4,inactive
Fhip1b (FHF complex subunit HOOK interacting protein 1B),3,76.4,108,inactive
Arc (activity regulated cytoskeletal-associated protein),1,27.1,28.9,inactive
Arc (activity regulated cytoskeletal-associated protein),2,93.5,112,inactive
Arc (activity regulated cytoskeletal-associated protein),3,109,70,inactive
"Sntn (sentan, cilia apical structure protein)",1,162,99.1,active
"Sntn (sentan, cilia apical structure protein)",2,76.9,70.5,inactive
"Sntn (sentan, cilia apical structure protein)",3,101,89.8,inactive
"Pfkp (phosphofructokinase, platelet)",1,81.5,86.9,inactive
"Aldh2 (aldehyde dehydrogenase 2, mitochondrial)",1,74.4,66.3,inactive
"Aldh2 (aldehyde dehydrogenase 2, mitochondrial)",2,94.6,59.9,inactive
"Aldh2 (aldehyde dehydrogenase 2, mitochondrial)",3,57.5,65,inactive
Fxn (frataxin),1,44.9,48.1,inactive
Fxn (frataxin),2,83.6,85.3,inactive
Fxn (frataxin),3,63.1,32.9,inactive
BC016548 (cDNA sequence BC016548),1,69,61.3,inactive
BC016548 (cDNA sequence BC016548),2,56,105,inactive
BC016548 (cDNA sequence BC016548),3,105,98.7,inactive
Syt11 (synaptotagmin XI),1,128,158,active
Syt11 (synaptotagmin XI),2,79.8,80.5,inactive
Cst11 (cystatin 11),1,164,59.4,active
Cst11 (cystatin 11),2,75.5,53.6,inactive
Cst11 (cystatin 11),3,59.3,99.5,inactive
Phb2 (prohibitin 2),1,32.3,26.9,inactive
Phb2 (prohibitin 2),2,60.4,60,inactive
Phb2 (prohibitin 2),3,80.6,71.6,inactive
Tank (TRAF family member-associated Nf-kappa B activator),1,72.3,54.5,inactive
Tank (TRAF family member-associated Nf-kappa B activator),2,101,93.4,inactive
Tank (TRAF family member-associated Nf-kappa B activator),3,143,92.6,active
Tuft1 (tuftelin 1),1,86.4,86.8,inactive
Tuft1 (tuftelin 1),2,80.8,102,inactive
Tuft1 (tuftelin 1),3,85.8,84.9,inactive
Or2w2 (olfactory receptor family 2 subfamily W member 2),1,68.9,70.2,inactive
Or2w2 (olfactory receptor family 2 subfamily W member 2),2,78,81.2,inactive
Or2w2 (olfactory receptor family 2 subfamily W member 2),3,71,70.8,inactive
